Experimental data: the supplement of paper PMC7661543
Differences between knockout arms are mostly noise.

Tested on: SKBR3
Assay: relative cell number vs DMSO control (72 h) (% of DMSO); higher = less growth inhibition (more cells)
Procedure: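 QMAP-Seq: a pool of 5 breast cancer cell lines (ZR-75-1, SKBR3, HCC-38, MDA-MB-231, BT-20), each carrying 12 doxycycline-inducible Cas9 sgRNA perturbations (11 knockouts plus non-targeting sgNT), was treated with compounds for 72 h at four 10-fold doses (10 nM-10 uM or 1 nM-1 uM range). Barcodes were amplified and sequenced, and cell number was interpolated from 293T spike-in standard curves. The result is expressed as % of the median of DMSO wells. Two biological replicates.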

CN(C)/N=N/c1[nH]cnc1C(N)=O [Dacarbazine]
Conditions	relative cell number
sgRNA knockout: sgATF3, 10 nM	88.9
sgRNA knockout: sgATF3, 100 nM	92.2
sgRNA knockout: sgATF3, 1000 nM	105
sgRNA knockout: sgATF3, 10000 nM	93.5
sgRNA knockout: sgATF4, 10 nM	130
sgRNA knockout: sgATF4, 100 nM	102
sgRNA knockout: sgATF4, 1000 nM	99.8
sgRNA knockout: sgATF4, 10000 nM	101
sgRNA knockout: sgATF6, 10 nM	98.2
sgRNA knockout: sgATF6, 100 nM	95.4
sgRNA knockout: sgATF6, 1000 nM	98.5
sgRNA knockout: sgATF6, 10000 nM	115
sgRNA knockout: sgATG7, 10 nM	103
sgRNA knockout: sgATG7, 100 nM	111.8
sgRNA knockout: sgATG7, 1000 nM	100
sgRNA knockout: sgATG7, 10000 nM	110
sgRNA knockout: sgERN1, 10 nM	120
sgRNA knockout: sgERN1, 100 nM	103
sgRNA knockout: sgERN1, 1000 nM	113
sgRNA knockout: sgERN1, 10000 nM	95.6
sgRNA knockout: sgHSF1, 10 nM	99
sgRNA knockout: sgHSF1, 100 nM	88.4
sgRNA knockout: sgHSF1, 1000 nM	86.5
sgRNA knockout: sgHSF1, 10000 nM	114
sgRNA knockout: sgHSF2, 10 nM	106.3
sgRNA knockout: sgHSF2, 100 nM	82.1
sgRNA knockout: sgHSF2, 1000 nM	98.5
sgRNA knockout: sgHSF2, 10000 nM	93.5
sgRNA knockout: sgKEAP1, 10 nM	107
sgRNA knockout: sgKEAP1, 100 nM	77.8
sgRNA knockout: sgKEAP1, 1000 nM	89.5
sgRNA knockout: sgKEAP1, 10000 nM	92.3
sgRNA knockout: sgNFE2L2, 10 nM	98.2
sgRNA knockout: sgNFE2L2, 100 nM	71.2
sgRNA knockout: sgNFE2L2, 1000 nM	111
sgRNA knockout: sgNFE2L2, 10000 nM	98.2
sgRNA knockout: sgSLC35F2, 10 nM	81.7
sgRNA knockout: sgSLC35F2, 100 nM	86.9
sgRNA knockout: sgSLC35F2, 1000 nM	105
sgRNA knockout: sgSLC35F2, 10000 nM	96.9
sgRNA knockout: sgXBP1, 10 nM	80.3
sgRNA knockout: sgXBP1, 100 nM	99.6
sgRNA knockout: sgXBP1, 1000 nM	106
sgRNA knockout: sgXBP1, 10000 nM	113

CCNC(=O)c1noc(-c2cc(C(C)C)c(O)cc2O)c1-c1ccc(CN2CCOCC2)cc1 [NVPAUY922]
Conditions	relative cell number
sgRNA knockout: sgATF3, 1 nM	114
sgRNA knockout: sgATF3, 10 nM	73.1
sgRNA knockout: sgATF3, 100 nM	35.1
sgRNA knockout: sgATF3, 1000 nM	28.6
sgRNA knockout: sgATF4, 1 nM	95.6
sgRNA knockout: sgATF4, 10 nM	71
sgRNA knockout: sgATF4, 100 nM	25.9
sgRNA knockout: sgATF4, 1000 nM	29.2
sgRNA knockout: sgATF6, 1 nM	94
sgRNA knockout: sgATF6, 10 nM	92.9
sgRNA knockout: sgATF6, 100 nM	34.7
sgRNA knockout: sgATF6, 1000 nM	26.7
sgRNA knockout: sgATG7, 1 nM	97.3
sgRNA knockout: sgATG7, 10 nM	73.9
sgRNA knockout: sgATG7, 100 nM	39.4
sgRNA knockout: sgATG7, 1000 nM	28.7
sgRNA knockout: sgERN1, 1 nM	88.4
sgRNA knockout: sgERN1, 10 nM	86.7
sgRNA knockout: sgERN1, 100 nM	40.8
sgRNA knockout: sgERN1, 1000 nM	34.3
sgRNA knockout: sgHSF1, 1 nM	109
sgRNA knockout: sgHSF1, 10 nM	63.9
sgRNA knockout: sgHSF1, 100 nM	25.3
sgRNA knockout: sgHSF1, 1000 nM	31.8
sgRNA knockout: sgHSF2, 1 nM	97.1
sgRNA knockout: sgHSF2, 10 nM	67.2
sgRNA knockout: sgHSF2, 100 nM	30.6
sgRNA knockout: sgHSF2, 1000 nM	26
sgRNA knockout: sgKEAP1, 1 nM	114
sgRNA knockout: sgKEAP1, 10 nM	67.3
sgRNA knockout: sgKEAP1, 100 nM	38.3
sgRNA knockout: sgKEAP1, 1000 nM	34.7
sgRNA knockout: sgNFE2L2, 1 nM	95.57
sgRNA knockout: sgNFE2L2, 10 nM	69.8
sgRNA knockout: sgNFE2L2, 100 nM	25.9
sgRNA knockout: sgNFE2L2, 1000 nM	37.8
sgRNA knockout: sgSLC35F2, 1 nM	102
sgRNA knockout: sgSLC35F2, 10 nM	70.2
sgRNA knockout: sgSLC35F2, 100 nM	34.2
sgRNA knockout: sgSLC35F2, 1000 nM	32.2
sgRNA knockout: sgXBP1, 1 nM	102
sgRNA knockout: sgXBP1, 10 nM	72.3
sgRNA knockout: sgXBP1, 100 nM	30.5
sgRNA knockout: sgXBP1, 1000 nM	25.9

CN1CCc2c(c3ccccc3n2Cc2ccc(C(=O)NO)cc2)C1 [TubastatinA]
Conditions	relative cell number
sgRNA knockout: sgATF3, 10 nM	67.3
sgRNA knockout: sgATF3, 100 nM	76.5
sgRNA knockout: sgATF3, 1000 nM	85.6
sgRNA knockout: sgATF3, 10000 nM	22.8
sgRNA knockout: sgATF4, 10 nM	114
sgRNA knockout: sgATF4, 100 nM	101
sgRNA knockout: sgATF4, 1000 nM	93.2
sgRNA knockout: sgATF4, 10000 nM	33.9
sgRNA knockout: sgATF6, 10 nM	98
sgRNA knockout: sgATF6, 100 nM	82.1
sgRNA knockout: sgATF6, 1000 nM	87.05
sgRNA knockout: sgATF6, 10000 nM	27.8
sgRNA knockout: sgATG7, 10 nM	103
sgRNA knockout: sgATG7, 100 nM	86.4
sgRNA knockout: sgATG7, 1000 nM	90.6
sgRNA knockout: sgATG7, 10000 nM	34.7
sgRNA knockout: sgERN1, 10 nM	70.9
sgRNA knockout: sgERN1, 100 nM	94.4
sgRNA knockout: sgERN1, 1000 nM	87.2
sgRNA knockout: sgERN1, 10000 nM	37
sgRNA knockout: sgHSF1, 10 nM	94.2
sgRNA knockout: sgHSF1, 100 nM	85.6
sgRNA knockout: sgHSF1, 1000 nM	74.9
sgRNA knockout: sgHSF1, 10000 nM	20.6
sgRNA knockout: sgHSF2, 10 nM	79.98
sgRNA knockout: sgHSF2, 100 nM	92.4
sgRNA knockout: sgHSF2, 1000 nM	91.1
sgRNA knockout: sgHSF2, 10000 nM	31.3
sgRNA knockout: sgKEAP1, 10 nM	91.3
sgRNA knockout: sgKEAP1, 100 nM	80.6
sgRNA knockout: sgKEAP1, 1000 nM	65.46
sgRNA knockout: sgKEAP1, 10000 nM	27.8
sgRNA knockout: sgNFE2L2, 10 nM	101
sgRNA knockout: sgNFE2L2, 100 nM	88.6
sgRNA knockout: sgNFE2L2, 1000 nM	90.2
sgRNA knockout: sgNFE2L2, 10000 nM	35.2
sgRNA knockout: sgSLC35F2, 10 nM	76.9
sgRNA knockout: sgSLC35F2, 100 nM	74.7
sgRNA knockout: sgSLC35F2, 1000 nM	102
sgRNA knockout: sgSLC35F2, 10000 nM	28.9
sgRNA knockout: sgXBP1, 10 nM	117
sgRNA knockout: sgXBP1, 100 nM	71.1
sgRNA knockout: sgXBP1, 1000 nM	97.8
sgRNA knockout: sgXBP1, 10000 nM	22.9
